# Primary screen of a compound library

Amino acid sequences for entries named in this document (tags omitted). Residues count along the entry.
UniProt A4I591, 1-473: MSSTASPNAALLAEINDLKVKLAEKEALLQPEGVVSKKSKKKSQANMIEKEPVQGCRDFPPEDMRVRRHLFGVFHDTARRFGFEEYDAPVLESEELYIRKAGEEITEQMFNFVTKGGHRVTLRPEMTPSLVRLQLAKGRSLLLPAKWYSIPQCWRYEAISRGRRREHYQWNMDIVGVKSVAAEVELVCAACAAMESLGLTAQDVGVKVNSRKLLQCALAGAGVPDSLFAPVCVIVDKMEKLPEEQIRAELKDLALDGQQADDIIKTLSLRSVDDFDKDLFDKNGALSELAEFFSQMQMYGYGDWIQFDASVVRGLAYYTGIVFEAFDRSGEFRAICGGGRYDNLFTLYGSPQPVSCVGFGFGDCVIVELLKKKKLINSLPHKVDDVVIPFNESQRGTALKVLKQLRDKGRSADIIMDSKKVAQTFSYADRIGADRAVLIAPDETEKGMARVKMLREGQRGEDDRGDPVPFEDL
UniProt I6X8D2, whole entry: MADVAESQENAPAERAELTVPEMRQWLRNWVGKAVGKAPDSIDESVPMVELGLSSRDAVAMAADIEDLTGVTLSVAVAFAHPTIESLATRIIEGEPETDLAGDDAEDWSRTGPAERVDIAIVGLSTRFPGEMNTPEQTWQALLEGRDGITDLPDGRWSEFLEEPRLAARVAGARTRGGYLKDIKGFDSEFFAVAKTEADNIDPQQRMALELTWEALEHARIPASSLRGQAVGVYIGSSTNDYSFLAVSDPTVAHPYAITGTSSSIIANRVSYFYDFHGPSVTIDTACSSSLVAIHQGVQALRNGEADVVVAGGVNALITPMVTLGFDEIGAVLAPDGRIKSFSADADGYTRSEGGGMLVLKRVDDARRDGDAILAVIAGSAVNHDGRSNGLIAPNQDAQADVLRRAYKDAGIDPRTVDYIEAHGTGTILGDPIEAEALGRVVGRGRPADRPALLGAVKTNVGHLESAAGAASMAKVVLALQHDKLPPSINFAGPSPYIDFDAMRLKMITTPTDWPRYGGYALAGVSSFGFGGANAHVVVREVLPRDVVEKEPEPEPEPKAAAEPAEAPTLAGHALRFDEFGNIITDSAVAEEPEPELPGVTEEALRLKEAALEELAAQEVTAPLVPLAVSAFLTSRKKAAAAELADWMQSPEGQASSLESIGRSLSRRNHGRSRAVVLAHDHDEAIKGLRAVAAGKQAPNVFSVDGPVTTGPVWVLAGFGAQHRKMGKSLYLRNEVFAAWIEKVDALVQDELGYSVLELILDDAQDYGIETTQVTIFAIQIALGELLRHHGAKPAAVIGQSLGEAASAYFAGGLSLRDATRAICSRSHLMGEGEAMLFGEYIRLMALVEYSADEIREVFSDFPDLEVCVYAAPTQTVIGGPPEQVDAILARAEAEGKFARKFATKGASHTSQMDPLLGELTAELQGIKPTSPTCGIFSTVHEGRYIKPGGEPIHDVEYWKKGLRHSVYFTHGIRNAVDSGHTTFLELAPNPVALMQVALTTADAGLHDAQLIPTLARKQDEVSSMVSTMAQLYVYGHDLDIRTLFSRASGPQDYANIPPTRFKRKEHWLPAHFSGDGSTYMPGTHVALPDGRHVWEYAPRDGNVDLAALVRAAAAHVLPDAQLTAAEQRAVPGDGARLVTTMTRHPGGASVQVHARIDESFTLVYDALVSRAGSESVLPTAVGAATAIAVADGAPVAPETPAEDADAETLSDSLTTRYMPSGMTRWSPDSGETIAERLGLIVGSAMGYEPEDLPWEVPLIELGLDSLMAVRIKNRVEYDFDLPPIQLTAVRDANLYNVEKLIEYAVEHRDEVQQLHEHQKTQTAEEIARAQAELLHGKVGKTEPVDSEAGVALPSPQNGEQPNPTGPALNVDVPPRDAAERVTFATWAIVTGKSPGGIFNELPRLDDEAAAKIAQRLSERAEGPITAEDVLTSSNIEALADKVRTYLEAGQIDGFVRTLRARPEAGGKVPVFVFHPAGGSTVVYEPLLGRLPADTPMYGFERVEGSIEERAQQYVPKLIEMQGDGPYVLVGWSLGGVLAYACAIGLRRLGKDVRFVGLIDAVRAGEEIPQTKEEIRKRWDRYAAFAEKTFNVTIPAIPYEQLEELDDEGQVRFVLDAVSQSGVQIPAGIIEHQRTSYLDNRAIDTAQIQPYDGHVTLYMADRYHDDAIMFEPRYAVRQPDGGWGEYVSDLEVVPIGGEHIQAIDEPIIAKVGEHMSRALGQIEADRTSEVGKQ

Results are given as percent effect. How 0% and 100% were set is not recorded. Most values in the screen are low, and negative values occur. This is an unselected part of the compounds tested. Two or more numbers in one place are separate tests of the same structure; such repeats can differ widely. A dash means the value is not listed here; it may have been measured.

Leishmania in macrophages: 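Cell assay of Leishmania donovani living inside macrophages; the read-out is not stated. Tested at 30 µM. Higher reads as stronger inhibition (inferred: compounds with an IC50 in retests scored well above the rest). Size under these conditions: about 69,000 compounds, about 1,000 of them at 50% or above in at least one test.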
LiHisRS: 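Histidine-tRNA ligase, Leishmania infantum (UniProt A4I591). Enzyme assay of histidyl-tRNA synthetase; the read-out is not stated. Concentration: 30 µM. Direction is inferred from retests: higher values go with stronger inhibition. The assay is labelled LdHisRS but filed under L. infantum. About 69,000 compounds were tested under these conditions; 0.6% (about 410) showed 50% or more at least once.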
Pks13 thioesterase: 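Polyketide synthase Pks13, Mycobacterium tuberculosis (UniProt I6X8D2). Enzyme assay of the thioesterase domain of polyketide synthase 13; the read-out is not stated. Tested at 30 µM. Higher reads as stronger inhibition (inferred from which compounds were picked for retests). Of about 67,000 compounds tested this way, about 300 (0.46%) reached 50% or more in at least one test.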

compound,Leishmania in macrophages,LiHisRS,Pks13 thioesterase
O=C(O)[C@]12CCCN(Cc3cccnc3)[C@@H]1CCN(c1cnccn1)C2,-,6.25%,10.37%
Cn1cc(C(=O)N2CCCC2c2ccc3c(c2)OCO3)ccc1=O (stereo not drawn),-4.584%,12.12%,-9.959%
CCc1nc(-c2cncnc2C2CCNC2)no1 (stereo not drawn),33.84%,2.817%,3.269%
Cc1ccc(N2CCC(N3C[C@@H](CN(C)C)[C@@H](CO)C3)CC2)cc1,38.77%,26.51%,-17.41%
CCS(=O)(=O)N1CC(c2nc(-c3cccs3)no2)C1,33.34%,11.86%,23.33%
O=C(NCCCO)NCCc1cc(F)ccc1F,4.051%,20.54%,-14.28%
COc1ccc(NC(=O)CCn2nc(-c3cccs3)oc2=O)cc1OC,30.05%,15.18%,-7.119%
COc1ccncc1NC(=O)C1(c2ccccc2)CC1,15.77%,4.167%,-4.196%
CC(=O)Cn1nc(-c2ccccc2F)ccc1=O,12.61%,4.348%,1.536%
Cn1ccnc1CN1CCC2(CC1)COCCN(S(C)(=O)=O)C2,-,11.54%,10.14%
O=C(O)C(F)(F)F.[H][C@@]12COC[C@@H](CC(=O)N3CCOCC3)[C@]1([H])CN(Cc1ccc(C)s1)C2,13.95%,-,-
CC(C(=O)NCc1ccnc(N(C)C)c1)n1cccn1 (stereo not drawn),41.24%,19.64%,-7.768%
c1ccc2c(c1)cnn2CCCNC1CCOC2(CCOCC2)C1 (stereo not drawn),37.73%,21.52%,-48.88%
CN(Cc1ccccn1)C(=O)c1nn(C)c2c1CCN(CC1CC1)C2.O=C(O)C(F)(F)F.O=C(O)C(F)(F)F.O=C(O)C(F)(F)F,15.99%,-,-
OC(CN1CCOCC1)c1cc(Cl)ccc1Cl (stereo not drawn),1.096%,15.49%,-8.308%
CN(C(=O)C1CCOCC1)[C@@H]1CCC[C@@H](N2CCCC2)[C@@H]1O,14.29% and 17.7%,13.04%,-5.376%
CCCn1cc(C(=O)NC2CCN(CC(=O)NC3CC3)CC2)c(C)n1,11.16%,7.2%,2.577%
CN(CCc1ccc(F)cc1)Cc1nc2c(cnn2C)c(=O)[nH]1,-15.38%,25.76%,-12.87%
O=C(C1CCCc2[nH]ncc21)N1CCCC1 (stereo not drawn),-14.47%,-3.774%,0.5298%
Cc1ccc2[nH]c(C(=O)N3CCC4(CC3)C(=O)NCCN4C)nc2c1,6.644%,21.31%,-23.26%
Cc1cc(C(=O)NCc2ccc(F)cc2)c2c(C3CCNC3)noc2n1 (stereo not drawn),12.28%,17.93%,-14.68%
Cc1cccn2cc(CN3CCC(N4CCN(C)C4=O)CC3)nc12,15.51%,12.39%,2.396%
CN1C(=O)C(c2ccccc2)CC12CCN(CCO)CC2 (stereo not drawn),-,9.722%,-28.31%
COC(=O)[C@H]1CN(C(=O)NC(C)C)CCN1C(=O)CSC,22.92%,22.22%,-27.29%
CCN1CCN(C(=O)c2ccc(Cn3ccccc3=O)o2)CC1,14.6%,12.84%,-6.642%
CNC(=O)C1(CCCc2ccncc2)CCN1.O=C(O)C(F)(F)F (stereo not drawn),17.85% and 20.11%,-,-
O=S(=O)(Nc1cnc(N2CCOCC2)nc1)c1ccc(Cl)cc1,34.38%,6.78%,2.322%
CS(=O)(=O)N1CCCC(Cc2cncc(-c3ccccc3C(=O)O)n2)C1 (stereo not drawn),-4.547% and -12.82%,2.062%,3.278%
CC(NC(N)=O)C(=O)NCc1cc(Br)ccc1F (stereo not drawn),-1.45%,5.376%,-11.18%
CC(NC(=O)NCC1(c2ccc(F)cc2)CC1)c1nncn1C (stereo not drawn),10.61%,15.18%,-10.1%
Cc1nc(N2CCN3CCCCC3C2)nc2cc(S(C)(=O)=O)ccc12 (stereo not drawn),-196.8%,27.4%,-21.5%
CC(C)(O)CCc1cccc(C(=O)NCc2nccs2)c1,1.752%,13.33%,-0.2286%
COC(=O)NCCC(=O)NCC1(c2cccc(Cl)c2)CC1,29.38%,8.333%,-34.78%
Cc1noc(C)c1CN(C)C(=O)c1ccc(NC2CC2)nc1,24.65%,25.76%,-6.955%
O=C(O)C(F)(F)F.[H][C@@]12CCN(Cc3ccc(F)cc3)C[C@]1(C(=O)N1CCCO1)CCO2,19.37%,-,-
Cc1cccc(CN2C[C@@H](CN3CCCN(C)CC3)C[C@H](CO)C2)n1,16.73%,20%,-69.17%
CCc1noc(CN(C)CCC(=O)Nc2ccccc2C#N)n1,10.43%,6.897%,-35.64%
N#Cc1ccc(OCC(O)CN2CCC(Cn3cccn3)CC2)cc1 (stereo not drawn),5.34%,11.97%,-29.16%
CCC(C#N)NC(=O)CCNC(=O)C(C)(C)C (stereo not drawn),12.87%,25.37%,-22.09%
CC(C)c1noc(CN2CCCC2c2noc(C(C)C)n2)n1 (stereo not drawn),-0.2644%,3.478%,-
CN(C)C(=O)N1CCN(Cc2nc3ccccc3[nH]2)[C@H]2CS(=O)(=O)C[C@H]21,-,14.47%,2.105%
c1ccc(CN2CC[C@@H]3O[C@@H](COCC4CCOCC4)CC[C@@H]32)nc1,-,12.41%,-32.98%
CC(=O)CCCC(=O)N(Cc1ccsc1)CC(C)C,-9.743%,15.38%,-31.73%
Cc1cc(NC(=O)CN2CCCC2c2c(C)nn(C)c2C)on1 (stereo not drawn),36.66%,14.55%,-6.302%
Cl.O=C(NC1CCCC1)c1ccnc(C2CCNCC2)c1,12.3%,-,-
COc1ccc(C(C(=O)O)N2CCC(Cn3cccn3)CC2)cc1F (stereo not drawn),16.81%,-3.797%,-40.55%
CC(O)CN1CCC(CN(C)Cc2cc(F)cc3cccnc23)CC1 (stereo not drawn),26.07%,6.806%,-37.09%
CNC(=O)C1CCCCN1C(=O)c1csc(-c2ccc(C)cc2)n1 (stereo not drawn),15.37%,16.67%,-40.85%

The first 3 entries again:

compound	Leishmania in macrophages	LiHisRS	Pks13 thioesterase
O=C(O)[C@]12CCCN(Cc3cccnc3)[C@@H]1CCN(c1cnccn1)C2	-	6.25%	10.37%
Cn1cc(C(=O)N2CCCC2c2ccc3c(c2)OCO3)ccc1=O (stereo not drawn)	-4.584%	12.12%	-9.959%
CCc1nc(-c2cncnc2C2CCNC2)no1 (stereo not drawn)	33.84%	2.817%	3.269%

The values are deposited in ChEMBL (CHEMBL3988442, “University of Dundee, Small-Polar-MMV Screening Library” (2021)).